These results are taken from publication PMC6748134.

Amino acid sequences for entries named in this document (tags omitted).
UniProt Q16665: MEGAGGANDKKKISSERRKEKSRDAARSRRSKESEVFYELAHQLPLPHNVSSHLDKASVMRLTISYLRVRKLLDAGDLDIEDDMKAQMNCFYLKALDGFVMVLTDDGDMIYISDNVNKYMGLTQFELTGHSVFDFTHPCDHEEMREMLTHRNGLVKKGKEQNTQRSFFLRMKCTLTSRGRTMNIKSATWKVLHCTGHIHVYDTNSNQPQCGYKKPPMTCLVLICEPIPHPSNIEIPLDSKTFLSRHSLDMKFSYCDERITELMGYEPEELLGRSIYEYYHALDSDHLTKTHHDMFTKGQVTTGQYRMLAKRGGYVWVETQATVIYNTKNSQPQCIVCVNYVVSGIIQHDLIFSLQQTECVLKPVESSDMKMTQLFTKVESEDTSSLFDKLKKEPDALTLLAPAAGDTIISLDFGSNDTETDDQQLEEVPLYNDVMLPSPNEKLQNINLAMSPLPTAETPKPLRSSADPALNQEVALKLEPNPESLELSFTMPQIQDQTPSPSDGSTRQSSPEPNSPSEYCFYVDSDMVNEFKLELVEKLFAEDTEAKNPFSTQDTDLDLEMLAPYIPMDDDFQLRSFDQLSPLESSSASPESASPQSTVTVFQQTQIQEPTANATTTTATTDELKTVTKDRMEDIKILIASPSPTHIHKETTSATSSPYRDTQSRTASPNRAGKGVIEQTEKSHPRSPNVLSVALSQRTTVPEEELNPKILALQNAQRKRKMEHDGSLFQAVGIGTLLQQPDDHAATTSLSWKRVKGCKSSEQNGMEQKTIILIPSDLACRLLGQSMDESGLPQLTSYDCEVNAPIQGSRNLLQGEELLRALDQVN
UniProt Q8TD16: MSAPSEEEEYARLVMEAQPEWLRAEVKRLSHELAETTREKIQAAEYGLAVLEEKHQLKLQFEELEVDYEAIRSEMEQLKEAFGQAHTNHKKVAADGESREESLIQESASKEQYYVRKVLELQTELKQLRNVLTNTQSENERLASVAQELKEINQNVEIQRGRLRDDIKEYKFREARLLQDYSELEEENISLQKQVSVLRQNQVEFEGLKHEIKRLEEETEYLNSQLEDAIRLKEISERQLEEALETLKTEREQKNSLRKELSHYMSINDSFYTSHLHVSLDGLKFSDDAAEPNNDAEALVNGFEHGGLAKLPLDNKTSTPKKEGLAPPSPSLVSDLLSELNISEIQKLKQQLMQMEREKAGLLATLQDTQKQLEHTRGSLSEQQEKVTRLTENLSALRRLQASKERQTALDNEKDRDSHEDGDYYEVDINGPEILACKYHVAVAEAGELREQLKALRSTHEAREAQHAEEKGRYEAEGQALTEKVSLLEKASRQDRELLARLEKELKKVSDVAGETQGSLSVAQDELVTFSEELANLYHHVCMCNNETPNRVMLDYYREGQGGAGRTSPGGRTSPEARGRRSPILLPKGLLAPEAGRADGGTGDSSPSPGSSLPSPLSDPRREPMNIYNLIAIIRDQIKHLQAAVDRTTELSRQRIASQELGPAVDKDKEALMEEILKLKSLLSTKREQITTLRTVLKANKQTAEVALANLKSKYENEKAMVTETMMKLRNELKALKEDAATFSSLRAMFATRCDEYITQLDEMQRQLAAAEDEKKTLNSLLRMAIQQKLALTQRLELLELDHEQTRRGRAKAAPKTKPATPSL
UniProt P49841: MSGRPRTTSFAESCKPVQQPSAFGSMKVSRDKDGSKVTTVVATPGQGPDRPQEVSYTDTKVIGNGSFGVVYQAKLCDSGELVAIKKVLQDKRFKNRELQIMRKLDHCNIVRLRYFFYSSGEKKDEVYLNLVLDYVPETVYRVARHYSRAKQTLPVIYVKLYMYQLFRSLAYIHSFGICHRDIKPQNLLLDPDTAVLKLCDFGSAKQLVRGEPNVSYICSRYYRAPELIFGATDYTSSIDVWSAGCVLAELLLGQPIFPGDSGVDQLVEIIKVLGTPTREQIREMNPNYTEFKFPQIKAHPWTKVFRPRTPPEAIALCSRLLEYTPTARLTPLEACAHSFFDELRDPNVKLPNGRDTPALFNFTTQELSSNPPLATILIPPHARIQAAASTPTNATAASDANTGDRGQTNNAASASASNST
UniProt O00629: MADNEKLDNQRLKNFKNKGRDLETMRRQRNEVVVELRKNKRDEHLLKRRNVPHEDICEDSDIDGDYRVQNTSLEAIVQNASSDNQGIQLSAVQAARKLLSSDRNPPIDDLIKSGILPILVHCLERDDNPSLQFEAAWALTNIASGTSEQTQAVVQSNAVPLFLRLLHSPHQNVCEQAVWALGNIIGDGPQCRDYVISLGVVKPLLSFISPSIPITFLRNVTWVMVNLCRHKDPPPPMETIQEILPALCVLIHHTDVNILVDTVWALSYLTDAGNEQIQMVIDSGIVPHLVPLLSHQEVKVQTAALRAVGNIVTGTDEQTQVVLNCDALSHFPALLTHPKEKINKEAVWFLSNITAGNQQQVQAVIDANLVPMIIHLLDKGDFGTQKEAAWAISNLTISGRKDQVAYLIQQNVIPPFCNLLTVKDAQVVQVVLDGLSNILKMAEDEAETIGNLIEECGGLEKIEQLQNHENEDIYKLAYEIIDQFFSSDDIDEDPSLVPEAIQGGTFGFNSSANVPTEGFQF
UniProt P49792: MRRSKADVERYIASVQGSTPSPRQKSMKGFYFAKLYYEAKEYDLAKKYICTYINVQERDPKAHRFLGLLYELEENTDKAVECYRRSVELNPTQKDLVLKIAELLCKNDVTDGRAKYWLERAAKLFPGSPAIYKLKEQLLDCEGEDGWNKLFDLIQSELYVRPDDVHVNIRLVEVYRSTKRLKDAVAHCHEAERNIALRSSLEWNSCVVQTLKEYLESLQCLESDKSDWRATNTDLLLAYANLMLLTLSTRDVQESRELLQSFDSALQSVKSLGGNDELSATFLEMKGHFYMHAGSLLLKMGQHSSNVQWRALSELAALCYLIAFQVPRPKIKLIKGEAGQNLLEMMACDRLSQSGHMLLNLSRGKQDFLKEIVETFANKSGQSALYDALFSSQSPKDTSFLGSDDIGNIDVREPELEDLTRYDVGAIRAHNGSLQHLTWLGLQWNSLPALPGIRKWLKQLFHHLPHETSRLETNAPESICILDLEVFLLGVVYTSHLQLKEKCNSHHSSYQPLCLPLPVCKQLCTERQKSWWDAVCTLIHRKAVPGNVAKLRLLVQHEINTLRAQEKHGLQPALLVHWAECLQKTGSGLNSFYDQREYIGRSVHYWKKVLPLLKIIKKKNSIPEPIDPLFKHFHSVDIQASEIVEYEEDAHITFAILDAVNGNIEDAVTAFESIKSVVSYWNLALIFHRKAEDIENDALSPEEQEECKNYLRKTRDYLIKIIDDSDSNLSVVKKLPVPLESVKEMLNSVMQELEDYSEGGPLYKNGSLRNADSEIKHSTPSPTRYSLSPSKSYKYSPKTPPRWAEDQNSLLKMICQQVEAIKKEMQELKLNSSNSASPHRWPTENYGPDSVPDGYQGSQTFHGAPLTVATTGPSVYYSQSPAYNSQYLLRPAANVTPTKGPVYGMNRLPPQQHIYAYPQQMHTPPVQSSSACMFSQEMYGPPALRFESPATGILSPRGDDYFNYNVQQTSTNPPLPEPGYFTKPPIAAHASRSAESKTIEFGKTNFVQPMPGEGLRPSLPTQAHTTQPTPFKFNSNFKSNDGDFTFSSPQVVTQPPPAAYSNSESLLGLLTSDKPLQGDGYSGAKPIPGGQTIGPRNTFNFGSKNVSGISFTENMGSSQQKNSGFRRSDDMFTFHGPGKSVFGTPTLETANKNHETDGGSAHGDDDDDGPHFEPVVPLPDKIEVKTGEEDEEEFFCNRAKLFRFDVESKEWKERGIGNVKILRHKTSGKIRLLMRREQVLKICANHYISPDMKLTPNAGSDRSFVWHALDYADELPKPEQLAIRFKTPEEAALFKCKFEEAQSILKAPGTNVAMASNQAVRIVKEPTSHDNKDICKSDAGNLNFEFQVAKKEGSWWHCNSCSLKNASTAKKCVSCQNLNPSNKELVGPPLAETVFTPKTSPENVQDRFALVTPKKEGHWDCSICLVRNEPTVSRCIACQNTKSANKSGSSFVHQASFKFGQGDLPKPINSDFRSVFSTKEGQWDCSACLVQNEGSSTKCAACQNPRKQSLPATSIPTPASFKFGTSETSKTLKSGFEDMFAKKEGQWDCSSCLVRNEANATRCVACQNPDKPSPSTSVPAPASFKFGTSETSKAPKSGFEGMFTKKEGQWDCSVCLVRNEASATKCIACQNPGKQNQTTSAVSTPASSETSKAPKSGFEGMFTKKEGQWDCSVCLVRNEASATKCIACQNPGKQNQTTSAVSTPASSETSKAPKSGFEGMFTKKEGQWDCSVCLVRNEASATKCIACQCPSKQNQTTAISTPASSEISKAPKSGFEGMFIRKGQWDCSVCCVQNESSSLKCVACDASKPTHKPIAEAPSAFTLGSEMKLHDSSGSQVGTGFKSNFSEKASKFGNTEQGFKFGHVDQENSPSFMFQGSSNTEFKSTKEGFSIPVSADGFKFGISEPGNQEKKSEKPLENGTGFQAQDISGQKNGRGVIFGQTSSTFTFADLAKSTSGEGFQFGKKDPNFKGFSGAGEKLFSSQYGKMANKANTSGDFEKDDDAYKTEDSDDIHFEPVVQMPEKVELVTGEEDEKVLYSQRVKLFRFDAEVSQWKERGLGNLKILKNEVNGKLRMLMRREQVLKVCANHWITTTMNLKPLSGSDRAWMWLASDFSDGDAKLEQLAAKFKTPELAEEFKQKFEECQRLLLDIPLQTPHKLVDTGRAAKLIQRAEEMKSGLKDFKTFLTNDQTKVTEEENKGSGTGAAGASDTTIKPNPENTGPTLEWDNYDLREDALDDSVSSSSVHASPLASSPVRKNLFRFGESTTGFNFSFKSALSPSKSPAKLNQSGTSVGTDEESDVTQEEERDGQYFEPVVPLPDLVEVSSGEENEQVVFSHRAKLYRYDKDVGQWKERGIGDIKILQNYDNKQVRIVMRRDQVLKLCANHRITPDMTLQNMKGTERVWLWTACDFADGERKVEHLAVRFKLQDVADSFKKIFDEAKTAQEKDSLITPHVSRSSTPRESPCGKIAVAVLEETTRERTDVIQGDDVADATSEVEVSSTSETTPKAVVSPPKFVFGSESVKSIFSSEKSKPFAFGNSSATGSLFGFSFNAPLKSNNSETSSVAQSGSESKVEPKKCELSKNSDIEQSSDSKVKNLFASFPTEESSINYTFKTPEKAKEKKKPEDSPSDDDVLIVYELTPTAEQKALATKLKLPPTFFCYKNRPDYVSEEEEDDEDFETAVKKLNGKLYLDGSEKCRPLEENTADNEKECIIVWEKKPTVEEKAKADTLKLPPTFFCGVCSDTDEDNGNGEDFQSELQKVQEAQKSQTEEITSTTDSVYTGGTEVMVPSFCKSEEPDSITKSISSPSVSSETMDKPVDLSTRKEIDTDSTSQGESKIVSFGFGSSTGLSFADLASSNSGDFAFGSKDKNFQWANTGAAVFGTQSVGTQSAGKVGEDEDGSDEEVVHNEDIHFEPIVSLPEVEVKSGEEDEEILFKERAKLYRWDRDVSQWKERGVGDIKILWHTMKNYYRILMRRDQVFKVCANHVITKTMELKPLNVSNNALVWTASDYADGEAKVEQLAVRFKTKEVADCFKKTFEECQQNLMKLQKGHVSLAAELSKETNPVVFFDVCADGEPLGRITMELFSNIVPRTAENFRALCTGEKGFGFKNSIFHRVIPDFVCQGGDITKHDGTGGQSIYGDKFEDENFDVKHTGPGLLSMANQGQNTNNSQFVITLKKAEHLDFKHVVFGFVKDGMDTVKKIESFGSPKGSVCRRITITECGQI

The target of assay [1] is Hypoxia inducible factor 1α (human (endogenous in UCB-MSCs)) (UniProt Q16665). The assay is described as follows: co-IP; UCB-MSC lysates (20 mM Tris-HCl pH 8.0, 137 mM NaCl, 1% Nonidet P-40, 2 mM EDTA); primary antibody on Protein G magnetic beads, 6 h at 4 C; western blot; cells under normoxia or hypoxia 24 h, in some panels with MG132, wortmannin, ciliobrevin D, CoCl2 or NT siRNA. Background: A western blot detects proteins with antibodies after separation by electrophoresis.

Assay [2] concerns the target Hypoxia inducible factor 1α (in SK-N-MC cells) (human (endogenous in SK-N-MC)) (UniProt Q16665). The assay is described as follows: co-IP; SK-N-MC neuroblastoma cells, normoxia or hypoxia (Supplementary Fig. S6A); method taken from the paper's co-immunoprecipitation protocol, legend not shown.
Assay [3] addresses T1, Bicaudal D homolog 1 (human (endogenous in UCB-MSCs)) (UniProt Q96G01).
T1 sequence: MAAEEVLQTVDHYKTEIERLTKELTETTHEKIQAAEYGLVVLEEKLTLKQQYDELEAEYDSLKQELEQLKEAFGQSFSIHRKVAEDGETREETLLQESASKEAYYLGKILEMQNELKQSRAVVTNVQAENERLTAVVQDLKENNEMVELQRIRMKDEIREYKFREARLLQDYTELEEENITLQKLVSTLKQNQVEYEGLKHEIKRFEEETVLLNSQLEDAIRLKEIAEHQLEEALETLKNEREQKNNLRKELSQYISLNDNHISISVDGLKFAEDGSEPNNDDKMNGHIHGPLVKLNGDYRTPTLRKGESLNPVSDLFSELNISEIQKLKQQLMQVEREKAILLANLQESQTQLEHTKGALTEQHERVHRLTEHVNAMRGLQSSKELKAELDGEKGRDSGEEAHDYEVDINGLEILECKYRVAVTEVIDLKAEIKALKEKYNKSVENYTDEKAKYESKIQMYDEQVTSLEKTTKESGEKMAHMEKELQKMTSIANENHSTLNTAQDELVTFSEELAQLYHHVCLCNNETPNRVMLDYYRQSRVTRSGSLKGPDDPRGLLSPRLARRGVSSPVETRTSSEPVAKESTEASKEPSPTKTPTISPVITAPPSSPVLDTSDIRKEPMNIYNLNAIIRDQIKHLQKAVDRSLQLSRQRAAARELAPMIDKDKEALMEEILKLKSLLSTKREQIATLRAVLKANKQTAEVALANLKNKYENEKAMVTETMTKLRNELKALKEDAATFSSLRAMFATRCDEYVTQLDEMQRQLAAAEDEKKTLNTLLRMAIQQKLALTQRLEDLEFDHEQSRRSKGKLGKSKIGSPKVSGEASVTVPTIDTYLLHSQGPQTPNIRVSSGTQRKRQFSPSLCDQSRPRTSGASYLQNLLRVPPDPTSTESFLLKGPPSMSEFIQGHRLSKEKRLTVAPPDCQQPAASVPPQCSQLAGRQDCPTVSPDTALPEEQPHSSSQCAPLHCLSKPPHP
Description: co-IP; UCB-MSC lysates (20 mM Tris-HCl pH 8.0, 137 mM NaCl, 1% Nonidet P-40, 2 mM EDTA); primary antibody on Protein G magnetic beads, 6 h at 4 C; western blot; cells under normoxia or hypoxia 24 h, in some panels with MG132, wortmannin, ciliobrevin D, CoCl2 or NT siRNA.

The target in assay [4] is T1, Bicaudal D homolog 1 (human (endogenous in UCB-MSCs)). Description: proximity ligation; in situ Duolink PLA on fixed UCB-MSCs, normoxia or hypoxia, antibodies in proximity < 40 nm, SRRF microscopy.
Assay [5] addresses Hypoxia inducible factor 1α (human (endogenous in UCB-MSCs)) (UniProt Q16665). Description: co-IP; UCB-MSC lysates (20 mM Tris-HCl pH 8.0, 137 mM NaCl, 1% Nonidet P-40, 2 mM EDTA); primary antibody on Protein G magnetic beads, 6 h at 4 C; western blot; cells under normoxia or hypoxia 24 h, in some panels with MG132, wortmannin, ciliobrevin D, CoCl2 or NT siRNA. This is another data set of the same source.

Like-named read-outs stand apart in the source and are kept apart here. These are yes or no findings as the source states them, for the method shown. Binding seen in cells or lysates may run through a third protein. Some entries that bind do so weakly or less than the wild type.

Turning to BICD2 (from UniProt Q8TD16 1-824), the binding result in assay [1] was “binds”.
On to “BICD2 (in SK-N-MC cells) (from UniProt Q8TD16 1-824)”, for which the binding result in assay [2] is recorded as “binds”.
Take GSK3β (from UniProt P49841 1-420): in assay [3], the binding entry is recorded as “binds”.
As for “Hypoxia inducible factor 1α (from UniProt Q16665 1-826)”, the binding entry in assay [4] and in assay [3] was “binds” throughout.
With Importin α3 (from UniProt O00629 1-521), the binding result in assay [3] is “binds”.
Same read-out and setting: the value for RanBP2 (from UniProt P49792 1-3224) was “binds”.

B1: Bicaudal D homolog 1 (protein, UniProt Q96G01 1-975)
chain: T1 sequence
For the molecule B1, in assay [5], the binding result was “binds”.

B2: BICD1 (in SK-N-MC cells) (protein, UniProt Q96G01 1-975)
chain: T1 sequence
For B2, the binding result in assay [2] is “binds”.
